PubChem BioAssay AID1224828, NIAID – 2016

Assay: 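Regulators linking TLR4 signalling to p65 nuclear translocation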 (primary screen)
Cell system: mouse RAW264.7 G9 macrophage reporter cells (GFP-p65, Tnf promoter-mCherry)
Knock-down reagent: siRNA pool against mouse genes, 100 nM
Time to read-out: 2 days siRNA transfection, then 40 min LPS before fixation
Conditions: LPS (Salmonella minnesota R595) at 10 ng/ml
Measurement: 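Microscopy ratio of nuclear to perinuclear-ring GFP-p65 signal, scaled to the plate median; gene score is the average of two replicate robust z-scores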
Scale: p65 translocation robust z-score: higher = more nuclear NF-kappaB p65 after LPS than the plate median; nuclear/cytoplasmic p65 ratio: higher = more nuclear NF-kappaB p65
Hit rule: 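Active if robust z is above 3.3 (negative regulators) or below -1.56, the Tlr4 control median (positive regulators); activity score 50 or more; control wells not called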
Calls: active = hit (p65 shift raised or lowered); inactive = no clear change
Here is a random part of about 17,000 reagents. Over the whole deposit, 762 (4.5%) are marked active. 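Active calls include both raised and lowered p65 entry, mostly lowered; wells with fewer than 50 cells lack a z-score.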 Raw values are not corrected between plates. Entries without a mark were called inactive.

no.	target gene	p65 translocation robust z-score	nuclear/cytoplasmic p65 ratio, rep 1	nuclear/cytoplasmic p65 ratio, rep 2	low cell count flag
1	Dstyk (GeneID 213452)	0.68	1.76	1.67	enough cells to score
2	Cc2d1b (GeneID 319965)	0.58	1.32	1.61	enough cells to score
3	Pnma1 (GeneID 70481)	0.64	1.48	1.59	enough cells to score
4	B230220N19Rik (GeneID 319321)	0.82	1.53	1.82	enough cells to score
5	Sema4f (GeneID 20355)	0.56	1.51	1.29	enough cells to score
6	Ndufs5-ps (GeneID 170658)	0.81	1.46	1.52	enough cells to score
7	Matn1 (GeneID 17180)	0.01	1.53	1.27	enough cells to score
8	Fes (GeneID 14159)	0.7	1.9	1.4	enough cells to score
9	Inpp5d (GeneID 16331)	-0.46	1.38	1.36	enough cells to score
10	Naprt (GeneID 223646)	0.54	1.47	1.65	enough cells to score
11	Cdca4 (GeneID 71963)	-0.45	1.55	1.32	enough cells to score
12	Rabif (GeneID 98710)	0.85	1.48	1.58	enough cells to score
13	Cfc1 (GeneID 12627)	-0.3	1.37	1.39	enough cells to score
14	Clxn (GeneID 66793)		1.12	1.33	fewer than 50 cells per well; well left out of scoring
15	Bad (GeneID 12015)	0.63	1.74	1.68	enough cells to score
16	Pknox2 (GeneID 208076)	-0.05	1.47	1.13	enough cells to score
17	Kcnk5 (GeneID 16529)	-0.73	1.53	1.26	enough cells to score
18	Dmrt2 (GeneID 226049)	2.46	1.84	1.49	enough cells to score
19	Gne (GeneID 50798)	-0.33	1.62	1.35	enough cells to score
20	Krtap19-9b (GeneID 170939)	0.94	1.49	1.72	enough cells to score
21	Chrnb3 (GeneID 108043)	-0.35	1.45	1.3	enough cells to score
22	Sp110 (GeneID 109032)	-0.44	1.55	1.54	enough cells to score
23	Tapbpl (GeneID 213233)		1.37	1.18	fewer than 50 cells per well; well left out of scoring
24	Tcerg1l (GeneID 70571)	-1.28	1.14	1.35	enough cells to score

Reformatted: 2 of the entries above.
{"target gene": "Fes (GeneID 14159)", "p65 translocation robust z-score": 0.7, "nuclear/cytoplasmic p65 ratio, rep 1": 1.9, "nuclear/cytoplasmic p65 ratio, rep 2": 1.4, "low cell count flag": "enough cells to score"}
{"target gene": "Inpp5d (GeneID 16331)", "p65 translocation robust z-score": -0.46, "nuclear/cytoplasmic p65 ratio, rep 1": 1.38, "nuclear/cytoplasmic p65 ratio, rep 2": 1.36, "low cell count flag": "enough cells to score"}
